Experimental data as given in US20110053897A1 (IRM LLC, priority 2009, published 2011).
Structures were worked out from names or drawings and are uncertain.

Biological target: Syk kinase (Homo sapiens, UniProt P43405)
Assay: Syk kinase inhibition, Caliper LabChip off-chip mobility-shift kinase assay
Conditions: read-out: Syk Enzyme IC50
Method: Compounds of the examples and Table 1 provided herein were assayed to measure their capacity to inhibit Syk kinase.
Compounds of the examples and Table 1 provided herein were assessed for their ability to inhibit Syk kinase by utilizing Caliper Life Sciences' proprietary LabChip™ technology. The off-chip incubation mobility-shift kinase assay uses a microfluidic chip to measure the conversion of a fluorescent peptide substrate to a phosphorylated product. The reaction mixture, from a microtiter plate well, is introduced through a capillary sipper onto the chip, where the nonphosphorylated substrate and phosphorylated product are separated by electrophoresis and detected via laser induced fluorescence. […] The phosphorylated product migrates through the chip faster than the non-phosphorylated substrate, and signals from the two forms of the peptide appear as distinct peaks. Caliper's data analysis software (HTSWA) determines peak heights, from which the ratio of product to the peak sum P/(P+S) and percent (%) conversion is calculated. This value is used to compare compound wells to control wells present on the plate, and thereby determine the % inhibition values for the compound. […]

## CNS(=O)(=O)c1ccc(Nc2nc(Nc3cc(C)ccn3)cc3ccn(C)c(=O)c23)cc1 [compound 349]
  IC50: 218 nM
